From article PMC9581527
Results are given in words; binding and its absence hold for the method and conditions named. Binding seen in cells or lysates may run through a third protein.

Protein sequences, listed by entry. Tags and fused reporters are not part of them.
UniProt Q4KUS2: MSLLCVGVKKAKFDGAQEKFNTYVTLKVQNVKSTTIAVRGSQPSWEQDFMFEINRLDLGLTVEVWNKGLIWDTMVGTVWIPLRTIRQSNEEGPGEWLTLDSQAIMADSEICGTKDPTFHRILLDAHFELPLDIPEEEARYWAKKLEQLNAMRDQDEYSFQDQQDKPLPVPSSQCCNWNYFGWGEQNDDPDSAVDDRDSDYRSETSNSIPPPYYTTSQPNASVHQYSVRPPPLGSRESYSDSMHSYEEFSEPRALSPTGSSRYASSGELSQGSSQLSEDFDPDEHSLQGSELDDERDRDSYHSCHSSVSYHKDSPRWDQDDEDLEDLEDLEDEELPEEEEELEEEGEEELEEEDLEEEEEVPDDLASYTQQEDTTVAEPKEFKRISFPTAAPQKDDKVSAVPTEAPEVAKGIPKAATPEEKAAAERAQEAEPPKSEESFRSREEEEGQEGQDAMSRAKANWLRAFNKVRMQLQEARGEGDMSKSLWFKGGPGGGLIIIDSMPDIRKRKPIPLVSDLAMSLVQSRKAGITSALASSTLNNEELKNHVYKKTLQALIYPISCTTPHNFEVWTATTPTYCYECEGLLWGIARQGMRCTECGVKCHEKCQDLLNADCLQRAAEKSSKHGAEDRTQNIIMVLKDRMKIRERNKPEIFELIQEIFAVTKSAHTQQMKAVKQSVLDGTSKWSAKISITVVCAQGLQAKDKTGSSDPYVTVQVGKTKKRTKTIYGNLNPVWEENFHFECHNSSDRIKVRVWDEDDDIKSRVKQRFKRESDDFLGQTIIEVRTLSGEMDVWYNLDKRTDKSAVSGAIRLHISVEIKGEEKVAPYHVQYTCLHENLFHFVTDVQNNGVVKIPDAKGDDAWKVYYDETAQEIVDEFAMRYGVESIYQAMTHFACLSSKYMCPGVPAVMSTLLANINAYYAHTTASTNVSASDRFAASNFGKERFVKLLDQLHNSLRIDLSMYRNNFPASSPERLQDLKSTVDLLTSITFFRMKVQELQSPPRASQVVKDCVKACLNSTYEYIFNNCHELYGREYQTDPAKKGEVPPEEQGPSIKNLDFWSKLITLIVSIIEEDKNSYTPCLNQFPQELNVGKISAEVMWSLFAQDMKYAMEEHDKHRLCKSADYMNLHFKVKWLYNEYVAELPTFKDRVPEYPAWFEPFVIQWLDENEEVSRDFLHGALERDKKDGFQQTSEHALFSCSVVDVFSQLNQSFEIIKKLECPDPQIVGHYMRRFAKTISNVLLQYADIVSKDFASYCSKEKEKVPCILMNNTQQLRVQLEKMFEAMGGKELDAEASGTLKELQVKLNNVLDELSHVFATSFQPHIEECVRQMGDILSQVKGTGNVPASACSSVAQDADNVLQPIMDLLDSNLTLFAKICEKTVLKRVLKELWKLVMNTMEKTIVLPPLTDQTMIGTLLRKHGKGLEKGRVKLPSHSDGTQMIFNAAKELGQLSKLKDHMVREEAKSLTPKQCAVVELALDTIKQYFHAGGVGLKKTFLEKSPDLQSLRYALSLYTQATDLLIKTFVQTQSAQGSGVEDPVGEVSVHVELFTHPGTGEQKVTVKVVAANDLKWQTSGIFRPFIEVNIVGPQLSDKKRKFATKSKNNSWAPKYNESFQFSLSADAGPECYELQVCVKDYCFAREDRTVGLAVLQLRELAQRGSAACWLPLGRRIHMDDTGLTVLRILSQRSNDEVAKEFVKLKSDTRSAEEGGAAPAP
UniProt Q9R0N7: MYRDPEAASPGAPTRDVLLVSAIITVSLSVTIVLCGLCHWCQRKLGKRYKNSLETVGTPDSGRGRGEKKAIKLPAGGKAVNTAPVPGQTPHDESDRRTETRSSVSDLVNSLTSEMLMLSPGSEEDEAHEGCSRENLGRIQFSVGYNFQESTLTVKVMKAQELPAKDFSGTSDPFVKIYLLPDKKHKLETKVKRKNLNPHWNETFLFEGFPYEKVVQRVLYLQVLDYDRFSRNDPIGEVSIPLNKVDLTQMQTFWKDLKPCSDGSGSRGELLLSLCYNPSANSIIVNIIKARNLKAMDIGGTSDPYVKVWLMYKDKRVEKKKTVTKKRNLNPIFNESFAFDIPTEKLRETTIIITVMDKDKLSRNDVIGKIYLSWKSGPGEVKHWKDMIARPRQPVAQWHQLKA

Target: Munc13-1 (mouse (endogenous in mouse brain)) (UniProt Q4KUS2)
Assay: co-IP; mouse monoclonal anti-Munc13-1 (3H5) and Sepharose-Protein G beads on solubilised P2 synaptosomal fraction of WT mouse cerebral cortex; 50 mM Tris/HCl pH 8, 150 mM NaCl, 1 mM CaCl2, 1 mM EGTA, 1% IGEPAL; five washes with 0.1% IGEPAL; blot for Munc13-1 and Syt7

For “Synaptotagmin-7 (from UniProt Q9R0N7 1-403)”, the binding was “no binding”.
